According to PubChem BioAssay AID248 (DTP/NCI, 2004):
The list does not hold the whole screen: it gathers tests that were run many times, whatever their T/C, doses with no T/C, and many T/C values between a quarter and a half above the control. Further doses and runs are listed elsewhere. T/C gives the treated animals as a percentage of the vehicle group. Some doses have a count of surviving animals in place of a T/C: the source holds a T/C of zero for them, seemingly a mark for toxic or unscored doses. Some survivor counts are full or nearly so, which does not show that the dose was tolerated: survival well below the control is almost never listed, so the zero probably covers shortened survival too. Survivors were counted at the toxicity check, usually on the fifth day, unless a day is given; later deaths do not show. Schedules are NCI's codes, read here as Q, the interval in days (D) or hours (H), X, the number of doses. Some schedule codes hold Z or #, which are not explained here.

Tested on: L1210 leukemia ip in BDF1 mice, survival T/C
Test: NCI In Vivo Anticancer Drug Screen. Data for tumor model L1210 Leukemia (intraperitoneal) in B6D2F1 (BDF1) mice
Details: T/C endpoint: mean survival time, higher T/C = longer survival
[1] = dose: 400.0 mg/kg/injection, schedule: Q01DX001 (ip), vehicle: saline
[2] = dose: 400.0 mg/kg/injection, schedule: Q04DX003 (ip), vehicle: saline
[3] = dose: 200.0 mg/kg/injection, schedule: Q01DX009 (ip), vehicle: water
[4] = dose: 400.0 mg/kg/injection, schedule: Q04DX003 (ip), vehicle: water

Which survivor count (dose: 400.0 mg/kg/injection, schedule: Q04DX003 (ip), vehicle: Klucel (hydroxypropylcellulose) (HPC)) does the source give for O=C(OC(c1ccccc1)c1ccccc1)C(CSC(c1ccccc1)(c1ccccc1)c1ccccc1)NC(c1ccccc1)(c1ccccc1)c1ccccc1 (stereo not given) here?
Its survivor count is 6 of 6.

With CCOC(=O)C(C(=O)O)C(C)C (stereo not given) as the compound, how does the survivor count [1] read?
Its survivor count is 2 of 6.

Which survivor count (dose: 200.0 mg/kg/injection, schedule: Q01DX009 (ip), vehicle: saline with Tween-80) does the source give for O=C(O)CSc1nc2ccccc2s1 here?
Its survivor count is 3 of 6.

What about the survivor count (dose: 400.0 mg/kg/injection, schedule: Q01DX009 (ip), vehicle: saline with Tween-80) of the same compound?
The survivor count was 6 of 6.

What does the source list for O=C1C(=O)c2ccccc2C(O)=C1C(C1=C(O)c2ccccc2C(=O)C1=O)c1ccc(Cl)c(Cl)c1?
survivor count (dose: 150.0 mg/kg/injection, schedule: Q01DX001 (ip), vehicle: carboxymethylcellulose (CMC)): 0 of 6; survivor count (dose: 300.0 mg/kg/injection, schedule: Q01DX001 (ip), vehicle: carboxymethylcellulose (CMC)): 0 of 6

With CN(C)CCOC(=O)N1c2ccccc2C(C)(C)c2ccccc21 as the compound, how does the survivor count (dose: 200.0 mg/kg/injection, schedule: Q01DX001 (ip), vehicle: water) read?
The survivor count was 0 of 4.

And the survivor count (dose: 400.0 mg/kg/injection, schedule: Q01DX001 (ip), vehicle: water)?
Its survivor count is 0 of 4.

With CC(=O)OC1=CC(=O)c2ccccc2C1=O as the compound, how does the survivor count (dose: 50.0 mg/kg/injection, schedule: Q01DX001 (ip), vehicle: carboxymethylcellulose (CMC)) read?
Its survivor count is 2 of 4.

And the survivor count (dose: 200.0 mg/kg/injection, schedule: Q01DX001 (ip), vehicle: carboxymethylcellulose (CMC))?
Its survivor count is 0 of 4.

What about the survivor count (dose: 400.0 mg/kg/injection, schedule: Q01DX001 (ip), vehicle: carboxymethylcellulose (CMC)) of the same compound?
Its survivor count is 0 of 4.

With CC(CC#N)NCC[P+](c1ccccc1)(c1ccccc1)c1ccccc1 (stereo not given) as the compound, how does the survivor count [2] read?
Its survivor count is 6 of 6.

How did the survivor count (dose: 400.0 mg/kg/injection, schedule: Q04DX002 (ip), vehicle: Klucel (hydroxypropylcellulose) (HPC)) turn out when Cc1ccc(CN=C(N)CSS(=O)(=O)O)cc1C was run?
Its survivor count is 3 of 3.

For O=C1OC(c2ccccc2)CC1N1CCCCC1 (stereo not given), which survivor count (dose: 400.0 mg/kg/injection, schedule: Q01DX001 (ip), vehicle: saline sonified) is on record?
Its survivor count is 3 of 6.

What does the source list for O=C(CS)CS?
survivor count (dose: 100.0 mg/kg/injection, schedule: Q01DX009 (ip), vehicle: water): 3 of 6; survivor count (dose: 100.0 mg/kg/injection, schedule: Q04DX003 (ip), vehicle: water): 5 of 6; survivor count [3]: 0 of 6; survivor count (dose: 200.0 mg/kg/injection, schedule: Q04DX003 (ip), vehicle: water): 1 of 6; survivor count [4]: 0 of 6

For CCCCOP1(=O)NC(=O)C=C(C)N1 (stereo not given), which survivor count (dose: 50.0 mg/kg/injection, schedule: Q01DX005 (ip), vehicle: saline) is on record?
The survivor count was 3 of 3.

And the survivor count (dose: 100.0 mg/kg/injection, schedule: Q01DX005 (ip), vehicle: saline)?
Its survivor count is 2 of 3.

What about the survivor count (dose: 200.0 mg/kg/injection, schedule: Q01DX005 (ip), vehicle: saline) of the same compound?
Its survivor count is 3 of 3.

S=C1NCCCS1 was tested. Which survivor count (dose: 200.0 mg/kg/injection, schedule: Q01DX009 (ip), vehicle: Klucel (hydroxypropylcellulose) (HPC)) did it give?
The survivor count was 3 of 6.

What about the survivor count (dose: 400.0 mg/kg/injection, schedule: Q01DX009 (ip), vehicle: Klucel (hydroxypropylcellulose) (HPC)) of the same compound?
Its survivor count is 0 of 6.

Which survivor count [3] does the source give for CN(Cc1ccc2nc(N)[nH]c(=O)c2c1)c1ccc(C(=O)NC(CCC(=O)O)C(=O)O)cc1 (stereo not given) here?
Its survivor count is 2 of 6.

What about the survivor count [4] of the same compound?
Its survivor count is 0 of 6.

CC(C)c1ccc(/C(=N\N=C(N)N)C2CC2)cc1 was tested. Which survivor count (dose: 480.0 mg/kg/injection, schedule: Q01DX Z (ip), vehicle: carboxymethylcellulose (CMC)) did it give?
Its survivor count is 0 of 6.

Which results are given for O=S1(=O)C=CCCC=C1?
survivor count (dose: 25.0 mg/kg/injection, schedule: Q04DX002 (ip), vehicle: Klucel (hydroxypropylcellulose) (HPC)): 3 of 3; survivor count (dose: 150.0 mg/kg/injection, schedule: Q04DX002 (ip), vehicle: Klucel (hydroxypropylcellulose) (HPC)): 0 of 3; survivor count (dose: 300.0 mg/kg/injection, schedule: Q04DX002 (ip), vehicle: Klucel (hydroxypropylcellulose) (HPC)): 0 of 3

How did the survivor count (dose: 50.0 mg/kg/injection, schedule: Q01DX009 (ip), vehicle: saline) turn out when CC1=C2CCC(C)CC23C2C(=O)OC(=O)C2C1C1C(=O)OC(=O)C13 (stereo not given) was run?
Its survivor count is 3 of 6.

And the survivor count (dose: 100.0 mg/kg/injection, schedule: Q01DX009 (ip), vehicle: saline)?
Its survivor count is 2 of 6.

What about the survivor count (dose: 200.0 mg/kg/injection, schedule: Q04DX003 (ip), vehicle: saline) of the same compound?
Its survivor count is 4 of 6.

What about the survivor count [1] of the same compound?
The survivor count was 3 of 6.

O=C(C[n+]1cccc(C(=O)Nc2ccc(Cl)cc2)c1)Nc1ccccc1 was tested. Which survivor count [2] did it give?
The survivor count was 0 of 6.
